Here are results for one sequence from PMC8927968, “Lysine Methylation Modulates the Interaction of Archaeal Chromatin Protein Cren7 With DNA”.

Sequences of proteins named here, by UniProt entry; tags and fusion partners are left off.
UniProt C3NHU3, whole entry, stated change not applied: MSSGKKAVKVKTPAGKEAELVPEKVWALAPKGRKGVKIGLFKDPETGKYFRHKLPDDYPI

Construct, isoform or probe ends are uncertain for at least one entry.

The target of this series is Cren7ΔaKMT (native, unmethylated) (Sulfolobus islandicus ΔaKMT) (UniProt C3NHU3). As to the kind of experiment: BLI. Conditions: BLI: 20 mM Tris-HCl pH 6.8, 100 mM KCl, 1 mM EDTA, 0.05% Tween-20, 30°C; native protein; label: 5' biotin on strand 1.

“TAGAGCCCTAGTCTTCCAAACTAGCTACGC (double strand) [D30]” returned a Kd of 165 nM.

In general, Kd refers to the constant that tells how readily two partners part at equilibrium.
